Drawing on publication doi:10.1101/2020.02.18.954487, this text covers binding for 1 substance.

Protein sequences, listed by entry. Tags and fused reporters are not part of them.
UniProt Q9UKV8: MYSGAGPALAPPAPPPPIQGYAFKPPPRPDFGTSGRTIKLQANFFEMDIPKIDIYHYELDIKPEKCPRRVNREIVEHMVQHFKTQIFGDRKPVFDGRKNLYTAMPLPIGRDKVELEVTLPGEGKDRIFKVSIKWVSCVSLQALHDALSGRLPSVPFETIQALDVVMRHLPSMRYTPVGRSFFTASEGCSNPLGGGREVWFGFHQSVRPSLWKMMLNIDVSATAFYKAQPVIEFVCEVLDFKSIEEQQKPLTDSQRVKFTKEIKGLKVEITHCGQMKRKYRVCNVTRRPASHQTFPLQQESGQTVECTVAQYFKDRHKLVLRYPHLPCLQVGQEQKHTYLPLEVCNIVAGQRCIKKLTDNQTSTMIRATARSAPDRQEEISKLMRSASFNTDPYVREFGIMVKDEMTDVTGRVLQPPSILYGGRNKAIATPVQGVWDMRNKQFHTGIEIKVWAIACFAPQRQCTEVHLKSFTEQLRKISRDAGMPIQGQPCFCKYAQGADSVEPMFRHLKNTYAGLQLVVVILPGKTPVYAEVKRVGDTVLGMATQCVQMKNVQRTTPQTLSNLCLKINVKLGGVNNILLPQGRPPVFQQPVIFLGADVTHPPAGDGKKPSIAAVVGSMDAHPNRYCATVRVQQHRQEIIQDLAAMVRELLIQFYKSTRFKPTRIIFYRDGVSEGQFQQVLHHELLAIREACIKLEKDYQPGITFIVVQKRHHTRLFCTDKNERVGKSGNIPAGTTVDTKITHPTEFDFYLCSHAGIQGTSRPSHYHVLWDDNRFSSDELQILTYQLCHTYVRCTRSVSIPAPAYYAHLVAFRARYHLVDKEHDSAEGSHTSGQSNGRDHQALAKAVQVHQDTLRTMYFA
UniProt Q8NDV7: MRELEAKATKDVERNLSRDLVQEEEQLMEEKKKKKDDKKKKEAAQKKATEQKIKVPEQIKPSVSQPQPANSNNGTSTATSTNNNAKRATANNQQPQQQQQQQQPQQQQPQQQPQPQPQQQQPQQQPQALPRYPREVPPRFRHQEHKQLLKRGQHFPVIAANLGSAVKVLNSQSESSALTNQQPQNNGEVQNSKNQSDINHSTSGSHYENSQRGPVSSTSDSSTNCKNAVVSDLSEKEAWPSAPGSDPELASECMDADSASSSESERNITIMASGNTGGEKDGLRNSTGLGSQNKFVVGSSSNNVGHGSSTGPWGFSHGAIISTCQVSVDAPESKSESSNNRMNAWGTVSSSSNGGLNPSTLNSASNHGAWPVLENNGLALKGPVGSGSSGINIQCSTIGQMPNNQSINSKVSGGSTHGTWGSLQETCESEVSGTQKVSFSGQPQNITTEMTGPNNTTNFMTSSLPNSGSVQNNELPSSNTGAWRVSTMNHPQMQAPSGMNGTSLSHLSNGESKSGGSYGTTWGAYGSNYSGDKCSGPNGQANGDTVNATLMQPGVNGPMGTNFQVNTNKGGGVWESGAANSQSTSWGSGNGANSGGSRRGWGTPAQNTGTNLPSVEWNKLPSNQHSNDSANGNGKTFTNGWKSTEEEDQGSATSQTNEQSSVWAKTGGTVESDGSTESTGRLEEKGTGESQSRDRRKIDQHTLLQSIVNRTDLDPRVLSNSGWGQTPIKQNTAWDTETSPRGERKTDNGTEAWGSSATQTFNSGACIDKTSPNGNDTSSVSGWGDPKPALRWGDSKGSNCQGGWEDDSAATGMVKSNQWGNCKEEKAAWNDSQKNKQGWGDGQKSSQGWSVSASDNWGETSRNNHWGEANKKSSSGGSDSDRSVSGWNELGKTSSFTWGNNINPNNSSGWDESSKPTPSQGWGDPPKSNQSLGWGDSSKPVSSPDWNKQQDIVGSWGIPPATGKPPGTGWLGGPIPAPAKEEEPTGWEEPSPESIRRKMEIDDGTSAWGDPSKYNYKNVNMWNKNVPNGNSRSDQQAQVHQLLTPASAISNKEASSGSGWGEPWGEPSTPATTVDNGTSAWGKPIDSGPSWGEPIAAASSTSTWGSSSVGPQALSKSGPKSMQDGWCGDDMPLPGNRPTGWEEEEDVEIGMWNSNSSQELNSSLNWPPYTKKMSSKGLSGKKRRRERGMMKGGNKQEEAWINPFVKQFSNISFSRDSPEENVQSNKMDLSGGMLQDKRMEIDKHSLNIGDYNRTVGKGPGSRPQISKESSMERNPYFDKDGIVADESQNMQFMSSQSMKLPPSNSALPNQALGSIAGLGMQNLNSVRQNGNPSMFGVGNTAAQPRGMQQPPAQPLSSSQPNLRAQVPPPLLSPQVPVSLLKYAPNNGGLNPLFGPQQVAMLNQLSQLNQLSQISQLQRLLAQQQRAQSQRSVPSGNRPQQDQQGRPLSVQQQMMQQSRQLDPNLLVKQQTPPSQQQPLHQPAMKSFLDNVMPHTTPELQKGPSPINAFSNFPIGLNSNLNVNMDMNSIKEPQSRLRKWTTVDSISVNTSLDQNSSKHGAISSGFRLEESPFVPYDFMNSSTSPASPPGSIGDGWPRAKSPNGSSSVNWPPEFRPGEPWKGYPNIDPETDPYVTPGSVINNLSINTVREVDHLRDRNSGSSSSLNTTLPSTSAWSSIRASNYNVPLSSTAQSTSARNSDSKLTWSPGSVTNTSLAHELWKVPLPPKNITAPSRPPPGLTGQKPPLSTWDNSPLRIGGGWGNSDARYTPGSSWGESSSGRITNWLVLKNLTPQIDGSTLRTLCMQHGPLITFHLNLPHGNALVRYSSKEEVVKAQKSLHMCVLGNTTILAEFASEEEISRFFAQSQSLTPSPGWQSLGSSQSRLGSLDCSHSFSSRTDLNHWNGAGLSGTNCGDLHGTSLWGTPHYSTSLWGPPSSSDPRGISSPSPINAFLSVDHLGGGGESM

Results are given in words; binding and its absence hold for the method and conditions named. In cells and extracts the contact can be indirect. Some entries that bind do so weakly or less than the wild type.

For assay [1], the target named is FLAG/HA-tagged AGO1 (human) (UniProt Q9UL18). In words: co-IP.
Assay [2] has as its target FLAG/HA-tagged AGO2 (human) (UniProt Q9UKV8). The assay can be described thus: co-IP.

For GW182 (from UniProt Q8NDV7 1-1962), the binding entry in assay [1] and in assay [2] was “binds” each time.
